Results: patent US20260174678A1, “OLIGOSACCHARIDES FOR GLYCEMIC CONTROL” (priority 2022, published 2026)
At least one compound was matched to its structure with a doubt left.

Tested on: alpha-glucosidase
Assay: Alpha glucosidase inhibitor screening kit (BioVision, chromophore release)
Type: biochemical
Conditions: 3.0 mg/mL test substance; acarbose as positive inhibition control

SMILES: C[C@H]1O[C@H](O[C@H]2[C@H](O)[C@@H](O)[C@@H](O[C@H]3[C@H](O)[C@@H](O)C(O)O[C@@H]3CO)O[C@@H]2CO)[C@H](O)[C@@H](O)[C@@H]1N[C@H]1C=C(CO)[C@@H](O)[C@H](O)[C@H]1O (stereo partly drawn) [acarbose, O-4,6-dideoxy-4-[[(1S,4R,5S,6S)-4,5,6-trihydroxy-3-(hydroxymethyl)-2-cyclohexen-1-yl]amino]-α-d-glucopyranosyl-(1→4)-O-α-d-glucopyranosyl(1→4)-d-glucose]
- Alpha-glucosidase inhibition: 87.90%
